Primary screen of a compound library

Data taken from ChEMBL document CHEMBL3988442, “University of Dundee, Small-Polar-MMV Screening Library” (2021).

Mtb growth Cornell: 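Whole-cell assay for inhibitors of Mycobacterium tuberculosis growth, labelled Cornell in the record; the read-out is not stated. The concentration is filed as 10 mM, unlikely as a test dose, so the dose is not known. Higher means stronger inhibition (inferred from two other growth screens of the library). Of about 53,000 compounds tested this way, about 900 (1.7%) reached 50% or more in at least one test.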
Mtb heat-shock: 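Assay on Mycobacterium tuberculosis, filed only as a heat shock assay from Cornell; the read-out is not stated. The concentration is filed as 10 mM, unlikely as a test dose, so the dose is not known. Direction is inferred from retests: higher values go with stronger inhibition. About 69,000 compounds were tested under these conditions; 1.4% (about 930) showed 50% or more at least once.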

The filed quantity is “Percent Effect” (%). The controls that fix the scale are not given in the record; negative values are as filed. Compounds were drawn at random from those tested, without regard to their results. A dash means the value is not listed here; it may have been measured.

SMILES,Mtb growth Cornell,Mtb heat-shock
Cc1cc(S(C)(=O)=O)c(C)c(S(=O)(=O)N2CCCC(C)C2)c1 (stereo unspecified),21.84,-0.5708
CO[C@H]1CCN(C(=O)c2ccc3oc(C)cc3c2)C[C@@]12CCCO2,-,-17.88
Cc1nn(C)c2c(=O)n(CC(=O)NCc3ccc(N(C)C)cc3)ccc12,96.11,2.829
Cc1nc(CN2CCCN(CC(=O)N(C)CCC#N)CC2)no1,15.21,-6.943
CCOc1ccc(C(=O)N2CCCC2c2c(C)nn(C)c2Cl)cn1 (stereo unspecified),13.24,-5.173
Cc1nn(C)c2c(=O)n(Cc3ccc(C#N)cc3)nnc12,-,-2.404
O=C(O)C(F)(F)F.O=C1COC2(CCN(CC3CC3)CC2)CN1c1ccccc1,37.08,-15.93
O=C(c1cc(F)cc2[nH]cnc12)N1CCCCC1Cn1cccn1 (stereo unspecified),-,1.28
Cc1cccnc1CN1CCN(c2noc(-c3ccccc3)n2)CC1,16.84,100.3
COc1cc(F)ccc1NC(=O)NC(C)C(=O)NC(C)(C)C (stereo unspecified),12.71,-1.612
CN1C(=O)C2(CCN(Cc3cccnc3)CC2)c2cccc(F)c21.Cl,-11.69,-19.65
O=C(NCCc1ccccc1)NCC(O)c1cccs1 (stereo unspecified),16.84,20.6
[H][C@]12CCCCN1CCC[C@@]2(O)CNCCCNc1cccnc1,-52.71,-24.11
O=C(O)C(F)(F)F.[H][C@@]12COC[C@@H](C(=O)N3CCCO3)[C@]1([H])CN(C1CCOCC1)C2,-19.26,-17.18
Cc1cc(CN(C)C2CCCN(c3cccnn3)C2)no1 (stereo unspecified),-28.16,-24.98
COCC1CCN(c2nc(C(C)(C)C)nc3c2cnn3C)C1 (stereo unspecified),57.26,23.41
CCCn1[nH]cc/c1=N\C(=O)CN1CCCC1Cn1cc(C)cn1 (stereo unspecified),-1.977,-1.776
CN(C)c1cncc(C2CCCN(c3cnccn3)C2)n1 (stereo unspecified),29.73,-16.25
CCNC(=O)CN(CC)C(=O)c1cc(-c2cccc(Cl)c2)no1,-3.905,-4.148
Cc1nc(CNC(=O)NCC(O)c2cccc(Cl)c2)cs1 (stereo unspecified),-,-15.16
CCC[C@@H]1CN(S(=O)(=O)c2ccc(C)c(F)c2)C[C@H]1N(C)C,19.38,12.03
COC(=O)c1ccc(Cl)c(NS(=O)(=O)c2cnn(C)c2)c1,-,11.79
CN1CC2(CCN(C(=O)c3ccc(-n4cnnc4)cc3Cl)CC2)OC1=O,-,-11.69
COc1cc(C(=O)N2CCCC(c3cc(C)[nH]n3)C2)ccc1C (stereo unspecified),-,-20.53
CC(C)NC(=O)C1CN(C(=O)N2CCCC2)CC12CCOCC2 (stereo unspecified),6.717,0.5788
NS(=O)(=O)CCNC(=O)c1ccc(OCc2ccccc2)nc1,-24.78,-4.784
CCc1nc(CC(=O)NC(C#N)CC(C)C)cs1 (stereo unspecified),8.447,6.832
CCN1CCOCC2(CCCN(C(=O)c3ccccc3F)C2)C1.O=C(O)C(F)(F)F (stereo unspecified),-31.49,-14.87
O=C(O)C(F)(F)F.[H][C@@]12CCN(c3ncc(F)cn3)[C@]1([H])CC[C@H](C(=O)NC1CCCC1)O2,-9.448,-3.652
CC(C)(C)c1nc(CN2CCC(N3CCCCC3)CC2)no1,-4.403,-3.129
O=C(O)C(F)(F)F.O=S(=O)(c1cccs1)N1Cc2nc(CN3CCCC3)oc2C1,-8.687,6.246
Cc1cc(CNS(C)(=O)=O)ccc1N(C)C,6.478,12.22
O=C(COc1ccccc1)N1CCC[C@]2(C[C@@H](OCC3CC3)CO2)C1,22.02,-6.851
c1ccc(COc2ccccc2CNC2CCc3ncnn3C2)cc1 (stereo unspecified),-,4.249
COCCN(C)C[C@@H]1CN(C(=O)NC2CCCCC2)C[C@@H]1CO,-32.27,1.702
Cc1noc(C)c1CC(=O)N1CCC(c2ccn3nccc3n2)CC1,20.38,-12.61
CC1=C(C#N)C(=O)NC(=O)/C1=C\c1c(C)nn(-c2ccc(Cl)cc2)c1O,22.61,-14.1
CC1C(=O)Nc2cccnc2N1S(=O)(=O)c1ccc(C#N)c(Cl)c1 (stereo unspecified),-,-17.33
CCN1CC(C(=O)NCCc2csc(-c3ccncc3)n2)CC1=O (stereo unspecified),6.948,-2.498
O=C(C[S+]([O-])c1ccc(F)c(F)c1)NCc1cc(F)cc(F)c1 (stereo unspecified),-,-5.407
CNS(=O)(=O)c1cccc(C(C)NCc2ccncc2)c1 (stereo unspecified),12.41,1.039
CCn1cnnc1CNC(=O)N(C)Cc1ccc(F)c(F)c1,2.83,-3.465
CCC(O)CN1CCN(C(=O)c2cnn(-c3ccccc3F)c2)CC1 (stereo unspecified),-0.04085,-20.55
c1cc(CNCCC2CCCO2)ccn1 (stereo unspecified),-,-18.11
CCN1CCN(c2ccc(F)cc2C(C)NCc2cscn2)CC1 (stereo unspecified),-,9.161
COc1ccc(CN2CC[C@@H](O)[C@@H]2Cc2cnn(C)c2)cc1.O=C(O)C(F)(F)F,-12.93,-27.72
Fc1ccc(CN2CCC3(CC2)CN(c2ccccn2)CCO3)cc1.O=C(O)C(F)(F)F.O=C(O)C(F)(F)F,8.507,0.7684
COc1cccc(C(C)N2CCN(S(C)(=O)=O)CC2)c1 (stereo unspecified),-32.99,-39.53
COc1ccc(OCCN(C)CCCn2cnc3c(N)ncnc32)cc1,22.54,-35.78
O=C(NCCNS(=O)(=O)c1cc(F)cc(F)c1)c1ccoc1,23.35,3.291
CC(C)Oc1ccccc1C1CC(=O)Nc2nc(N3CCOCC3)sc21 (stereo unspecified),106.3,-6.212
CS(=O)(=O)c1ccc(CC(=O)N2CCN3CCNC(=O)C3C2)cc1 (stereo unspecified),-21.69,18.12
COCCN1CC[C@]2(CN(Cc3ccccn3)C[C@H]2C)C1=O.O=C(O)C(F)(F)F.O=C(O)C(F)(F)F,9.293,-36.28
Cc1cc(N2CCc3c(ncn3C)C2)nc(N)n1,-11.2,24.41
O=C(O)c1cc(S(=O)(=O)Nc2cccc(F)c2F)cc2c1OCCO2,-10.47,-14.59
CC(C)c1nc(C2CCCN(C(=O)CN3CCCNC3=O)C2)no1 (stereo unspecified),4.932,-2.531
NC(=O)CCCNC(=O)Cc1csc(Cc2ccccn2)n1,-3.692,8.934
Cc1c(COC(C)C)cccc1NC(=O)N1CC[C@H](O)C1,-,4.033
O=C(c1ncn2c(C3CCN(CC4CC4)CC3)ccnc12)N1CCCC1,38.26,1.318
O=C(Cc1ccsc1)N1CCc2ccc(=O)n(CC3CC3)c2CC1,26.9,-29.02
COCC(=O)N1CCN(C(=O)c2scnc2C)CC1,-4.319,5.011
Cc1nn(C)c2sc(C(=O)N3CCCC(n4ccnc4C)C3)cc12 (stereo unspecified),-2.883,-1.866
Cc1ccc(NCCCNC(=O)C2CC3(CCNCC3)CN2C)nc1 (stereo unspecified),-73.24,24.66
COc1ccc2cc(C3CN(C(=O)N(C)C)CCO3)ccc2c1 (stereo unspecified),-4.591,17.84
O=C(N1CCCC1)N1Cc2nccn2CC(Cn2ncccc2=O)C1 (stereo unspecified),26.15,-23.02

The last 8 entries again:

For Cc1c(COC(C)C)cccc1NC(=O)N1CC[C@H](O)C1 the result was Mtb heat-shock: 4.033%.
For O=C(c1ncn2c(C3CCN(CC4CC4)CC3)ccnc12)N1CCCC1 the result was Mtb growth Cornell: 38.26%; Mtb heat-shock: 1.318%.
For O=C(Cc1ccsc1)N1CCc2ccc(=O)n(CC3CC3)c2CC1 the result was Mtb growth Cornell: 26.9%; Mtb heat-shock: -29.02%.
For COCC(=O)N1CCN(C(=O)c2scnc2C)CC1 the result was Mtb growth Cornell: -4.319%; Mtb heat-shock: 5.011%.
For Cc1nn(C)c2sc(C(=O)N3CCCC(n4ccnc4C)C3)cc12 (stereo unspecified) the result was Mtb growth Cornell: -2.883%; Mtb heat-shock: -1.866%.
For Cc1ccc(NCCCNC(=O)C2CC3(CCNCC3)CN2C)nc1 (stereo unspecified) the result was Mtb growth Cornell: -73.24%; Mtb heat-shock: 24.66%.
For COc1ccc2cc(C3CN(C(=O)N(C)C)CCO3)ccc2c1 (stereo unspecified) the result was Mtb growth Cornell: -4.591%; Mtb heat-shock: 17.84%.
For O=C(N1CCCC1)N1Cc2nccn2CC(Cn2ncccc2=O)C1 (stereo unspecified) the result was Mtb growth Cornell: 26.15%; Mtb heat-shock: -23.02%.